Test results reported in patent EP0180309B2, “Improved disinfecting and preserving solutions for contact lenses and methods of use” (priority 1984, dated 1986).

Assay: Lens binding by Zone of Inhibition Technique
Conditions: 50 ppm solution, radius of zone

[H]/N=C(\N/C(=N/[H])NCCCCCCNC(=N)NC(=N)Nc1ccc(Cl)cc1)Nc1ccc(Cl)cc1 [Chlorhexidine, chlorhexidine gluconate]
ZONE OF INHIBITION Saline Rinse (lens soaked overnight at room temperature, saline rinse): 7 mm
ZONE OF INHIBITION Saline Soak 15 Min. (lens soaked overnight, then 15 minutes in isotonic saline): 8 mm
ZONE OF INHIBITION Saline Soak 1 Hour (lens soaked overnight, then one hour in isotonic saline): 7 mm
ZONE OF INHIBITION Saline Soak 3 Hours (lens soaked overnight, then three hours in isotonic saline): 5.5 mm
